Publication doi:10.1101/2024.10.10.617546
No constants are given. Whether binding was seen depends on the method and setting. In cells and extracts the contact can be indirect. Some results given as binding are weak or reduced against the parent protein; the word gives no strength.

Chains of the proteins cited; added tags and fusions are not shown.
UniProt Q3UHK6: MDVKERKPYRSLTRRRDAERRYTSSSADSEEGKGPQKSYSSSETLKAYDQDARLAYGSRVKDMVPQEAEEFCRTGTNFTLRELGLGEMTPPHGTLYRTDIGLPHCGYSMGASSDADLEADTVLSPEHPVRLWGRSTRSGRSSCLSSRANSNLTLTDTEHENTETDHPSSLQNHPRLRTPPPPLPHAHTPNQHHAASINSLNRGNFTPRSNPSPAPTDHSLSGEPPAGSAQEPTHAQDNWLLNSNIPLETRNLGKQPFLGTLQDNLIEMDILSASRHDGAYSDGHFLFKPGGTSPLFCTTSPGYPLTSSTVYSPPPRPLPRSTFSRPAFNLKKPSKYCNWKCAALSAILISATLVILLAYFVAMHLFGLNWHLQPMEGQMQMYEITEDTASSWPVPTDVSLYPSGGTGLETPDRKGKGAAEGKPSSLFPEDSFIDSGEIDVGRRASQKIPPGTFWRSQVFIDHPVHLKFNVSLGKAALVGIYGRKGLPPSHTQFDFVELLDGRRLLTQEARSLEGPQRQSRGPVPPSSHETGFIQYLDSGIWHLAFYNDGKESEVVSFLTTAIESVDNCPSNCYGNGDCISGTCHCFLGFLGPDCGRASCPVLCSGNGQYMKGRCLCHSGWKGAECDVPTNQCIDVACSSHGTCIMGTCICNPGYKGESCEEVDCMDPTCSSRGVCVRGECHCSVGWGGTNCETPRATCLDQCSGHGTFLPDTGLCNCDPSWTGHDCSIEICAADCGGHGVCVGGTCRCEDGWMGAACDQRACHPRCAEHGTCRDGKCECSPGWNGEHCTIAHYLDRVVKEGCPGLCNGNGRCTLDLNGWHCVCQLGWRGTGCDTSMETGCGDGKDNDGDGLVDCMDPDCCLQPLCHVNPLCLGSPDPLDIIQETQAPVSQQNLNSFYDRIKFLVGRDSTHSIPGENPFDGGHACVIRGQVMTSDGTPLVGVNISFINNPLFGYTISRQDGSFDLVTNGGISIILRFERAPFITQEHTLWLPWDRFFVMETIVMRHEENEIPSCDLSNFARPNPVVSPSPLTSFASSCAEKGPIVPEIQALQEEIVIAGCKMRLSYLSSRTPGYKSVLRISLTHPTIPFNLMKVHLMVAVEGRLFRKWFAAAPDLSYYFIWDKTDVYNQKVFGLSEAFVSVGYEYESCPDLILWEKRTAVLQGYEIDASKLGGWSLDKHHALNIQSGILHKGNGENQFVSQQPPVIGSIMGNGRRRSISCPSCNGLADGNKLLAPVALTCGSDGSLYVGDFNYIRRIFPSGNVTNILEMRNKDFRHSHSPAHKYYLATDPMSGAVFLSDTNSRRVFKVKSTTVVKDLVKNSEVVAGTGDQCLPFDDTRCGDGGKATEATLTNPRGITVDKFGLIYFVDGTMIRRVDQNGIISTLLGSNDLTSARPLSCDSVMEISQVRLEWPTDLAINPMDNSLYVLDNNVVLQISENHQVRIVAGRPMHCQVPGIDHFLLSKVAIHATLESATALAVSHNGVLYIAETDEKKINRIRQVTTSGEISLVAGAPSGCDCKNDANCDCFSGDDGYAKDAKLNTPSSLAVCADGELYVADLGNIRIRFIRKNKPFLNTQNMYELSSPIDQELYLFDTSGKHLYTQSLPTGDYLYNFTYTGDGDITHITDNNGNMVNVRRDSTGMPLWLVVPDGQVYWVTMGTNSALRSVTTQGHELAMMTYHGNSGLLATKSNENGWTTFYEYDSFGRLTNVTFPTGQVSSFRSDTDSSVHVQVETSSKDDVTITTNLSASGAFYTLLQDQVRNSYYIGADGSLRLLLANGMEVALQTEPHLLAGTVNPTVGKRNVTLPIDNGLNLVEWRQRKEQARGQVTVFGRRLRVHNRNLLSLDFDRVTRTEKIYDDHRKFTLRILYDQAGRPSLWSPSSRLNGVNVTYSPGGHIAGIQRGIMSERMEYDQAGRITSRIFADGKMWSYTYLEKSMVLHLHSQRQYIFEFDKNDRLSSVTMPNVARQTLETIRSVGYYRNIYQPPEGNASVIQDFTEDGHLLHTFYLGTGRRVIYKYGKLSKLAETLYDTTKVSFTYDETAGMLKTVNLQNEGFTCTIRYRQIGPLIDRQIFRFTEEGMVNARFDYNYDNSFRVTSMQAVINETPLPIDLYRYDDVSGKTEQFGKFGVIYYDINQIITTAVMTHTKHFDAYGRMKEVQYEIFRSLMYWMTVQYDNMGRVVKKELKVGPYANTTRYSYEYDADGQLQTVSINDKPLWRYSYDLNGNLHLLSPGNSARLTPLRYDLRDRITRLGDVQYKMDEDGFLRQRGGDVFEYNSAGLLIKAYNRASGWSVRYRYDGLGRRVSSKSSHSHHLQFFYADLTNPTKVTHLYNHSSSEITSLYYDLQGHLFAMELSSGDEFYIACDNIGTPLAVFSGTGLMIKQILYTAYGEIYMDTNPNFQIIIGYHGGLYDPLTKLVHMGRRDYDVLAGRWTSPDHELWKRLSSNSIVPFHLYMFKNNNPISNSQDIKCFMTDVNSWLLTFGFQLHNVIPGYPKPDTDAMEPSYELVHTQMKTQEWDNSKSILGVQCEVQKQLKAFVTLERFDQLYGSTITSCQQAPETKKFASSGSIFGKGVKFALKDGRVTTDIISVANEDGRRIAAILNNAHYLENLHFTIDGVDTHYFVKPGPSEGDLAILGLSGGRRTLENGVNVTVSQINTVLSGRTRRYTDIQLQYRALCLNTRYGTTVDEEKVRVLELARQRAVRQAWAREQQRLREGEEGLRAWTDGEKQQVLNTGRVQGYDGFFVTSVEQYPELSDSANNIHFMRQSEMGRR
UniProt Q8CD54: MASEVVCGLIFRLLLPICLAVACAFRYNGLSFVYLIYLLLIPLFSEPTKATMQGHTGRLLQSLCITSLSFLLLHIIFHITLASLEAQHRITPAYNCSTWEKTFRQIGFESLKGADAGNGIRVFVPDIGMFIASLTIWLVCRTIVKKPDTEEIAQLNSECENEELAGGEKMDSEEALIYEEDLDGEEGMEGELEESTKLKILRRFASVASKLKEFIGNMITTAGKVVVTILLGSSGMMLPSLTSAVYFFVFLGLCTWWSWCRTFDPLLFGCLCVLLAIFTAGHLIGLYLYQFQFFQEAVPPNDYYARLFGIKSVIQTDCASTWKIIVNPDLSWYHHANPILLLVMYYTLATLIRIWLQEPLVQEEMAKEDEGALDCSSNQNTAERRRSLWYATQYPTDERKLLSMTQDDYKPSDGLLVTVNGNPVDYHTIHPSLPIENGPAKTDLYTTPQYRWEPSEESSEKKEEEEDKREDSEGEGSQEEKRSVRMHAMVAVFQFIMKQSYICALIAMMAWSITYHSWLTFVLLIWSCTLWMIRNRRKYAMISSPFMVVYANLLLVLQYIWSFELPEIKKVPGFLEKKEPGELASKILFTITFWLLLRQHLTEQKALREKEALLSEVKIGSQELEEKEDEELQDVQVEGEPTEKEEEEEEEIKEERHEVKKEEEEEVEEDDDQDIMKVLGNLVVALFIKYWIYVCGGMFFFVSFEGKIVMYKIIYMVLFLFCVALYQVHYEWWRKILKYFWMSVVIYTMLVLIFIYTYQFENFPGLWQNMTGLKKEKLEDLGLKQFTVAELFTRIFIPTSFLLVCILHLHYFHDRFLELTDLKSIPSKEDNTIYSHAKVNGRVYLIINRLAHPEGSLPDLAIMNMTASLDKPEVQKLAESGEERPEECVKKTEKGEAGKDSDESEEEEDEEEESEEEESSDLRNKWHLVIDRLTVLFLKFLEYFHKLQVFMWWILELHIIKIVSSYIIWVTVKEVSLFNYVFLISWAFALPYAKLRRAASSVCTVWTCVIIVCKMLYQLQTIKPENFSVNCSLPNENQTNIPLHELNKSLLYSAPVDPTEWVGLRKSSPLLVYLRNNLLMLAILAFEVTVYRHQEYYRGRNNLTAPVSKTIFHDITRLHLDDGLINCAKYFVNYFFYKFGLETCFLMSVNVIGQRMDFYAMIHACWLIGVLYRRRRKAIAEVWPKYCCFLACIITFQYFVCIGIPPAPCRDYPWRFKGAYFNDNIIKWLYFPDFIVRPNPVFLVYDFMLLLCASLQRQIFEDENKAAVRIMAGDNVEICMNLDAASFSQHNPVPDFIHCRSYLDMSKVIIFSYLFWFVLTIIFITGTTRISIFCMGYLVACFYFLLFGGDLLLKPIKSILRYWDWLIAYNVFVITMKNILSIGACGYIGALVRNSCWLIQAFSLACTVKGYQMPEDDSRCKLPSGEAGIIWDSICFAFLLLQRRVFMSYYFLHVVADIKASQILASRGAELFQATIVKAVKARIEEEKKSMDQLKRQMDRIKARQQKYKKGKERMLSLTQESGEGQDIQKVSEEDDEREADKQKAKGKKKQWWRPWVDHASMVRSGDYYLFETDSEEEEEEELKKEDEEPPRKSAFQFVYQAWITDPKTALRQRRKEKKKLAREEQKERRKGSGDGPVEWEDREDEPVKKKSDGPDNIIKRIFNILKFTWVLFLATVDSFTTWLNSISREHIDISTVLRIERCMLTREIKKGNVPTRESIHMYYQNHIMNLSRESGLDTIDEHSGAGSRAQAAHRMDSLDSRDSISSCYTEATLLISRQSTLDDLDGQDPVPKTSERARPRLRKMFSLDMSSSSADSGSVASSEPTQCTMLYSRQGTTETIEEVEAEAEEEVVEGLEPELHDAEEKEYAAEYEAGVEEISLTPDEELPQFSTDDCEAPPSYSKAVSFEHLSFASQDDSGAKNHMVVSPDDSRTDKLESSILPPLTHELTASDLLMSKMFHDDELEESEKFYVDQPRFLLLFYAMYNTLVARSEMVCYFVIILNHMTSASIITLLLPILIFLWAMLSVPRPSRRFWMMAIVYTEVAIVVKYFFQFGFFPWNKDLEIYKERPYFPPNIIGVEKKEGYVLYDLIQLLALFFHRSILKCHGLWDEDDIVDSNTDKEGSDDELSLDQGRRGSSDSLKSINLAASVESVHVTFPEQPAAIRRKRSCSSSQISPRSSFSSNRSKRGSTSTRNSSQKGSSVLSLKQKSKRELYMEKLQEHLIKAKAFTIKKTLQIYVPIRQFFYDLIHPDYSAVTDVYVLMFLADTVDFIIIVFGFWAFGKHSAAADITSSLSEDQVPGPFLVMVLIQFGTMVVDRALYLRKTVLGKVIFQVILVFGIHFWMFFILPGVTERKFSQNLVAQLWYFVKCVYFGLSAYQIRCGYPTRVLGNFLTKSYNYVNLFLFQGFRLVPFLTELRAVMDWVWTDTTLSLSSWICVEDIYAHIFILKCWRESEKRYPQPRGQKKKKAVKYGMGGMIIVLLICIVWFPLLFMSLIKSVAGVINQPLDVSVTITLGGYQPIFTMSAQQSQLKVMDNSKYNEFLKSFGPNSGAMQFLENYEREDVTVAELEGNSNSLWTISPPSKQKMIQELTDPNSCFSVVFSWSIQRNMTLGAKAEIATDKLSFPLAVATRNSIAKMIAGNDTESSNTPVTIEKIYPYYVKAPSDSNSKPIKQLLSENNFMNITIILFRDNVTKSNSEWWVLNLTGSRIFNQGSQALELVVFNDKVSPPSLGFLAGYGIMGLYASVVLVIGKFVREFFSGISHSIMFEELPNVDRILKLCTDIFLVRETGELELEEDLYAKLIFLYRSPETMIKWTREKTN

Molecular target: TENM4-ALFA (full length Teneurin-4 with a C-terminal ALFA-tag) (mouse) (UniProt Q3UHK6)
Assay: co-IP

binding	Molecule
no binding	PIEZO2 (from UniProt Q8CD54 1-2822)
binds	ELKIN1 (protein, UniProt Q8BXN9 22-555) FPLSFLGAGPAPVFAADRSKWHIPMPSGKGYFNFGKILFRNTTILLKFDGEPCDQSLNITWFLKSADCYNEIYNFKADEIESYLENLKGKKGLSGRYQTSSRLFQNCSELYKAQSFSGDFTHRLPLLGEKQEAKENATNVTFTGDKIAMHEPLQTWQDAPYIFIVHVGISSSKESPKENALSNLFTMTVEVKGPYEYLTLEDYPLMIFFMVMCIVYVLFGVLWLAWSACYWRDLLRIQFWIGAVIFLGMFEKAVFYAEFQNIRYKGESVQNALVLAELLSAVKRSLARTLVIIVSLGYGIVKPRLGVTLHKVVVAGALYLLFSGMEGVLRVTGAQTDLASLAFIPLAFLDTALCWWIFISLTQTMKLLKLRRNIVKLSLYRHFTNTLILAVAASIVFIIWTTMKFRIVTCQSDWRELWVDDAIWRLLFSMILFVIMILWRPSANNQRFAFSPLSEEDEEDEQKEPMLKESFEGMKMRSTKQEPNGTSKVNKAQEDDLKWVEENVPSSVTDVALPALLDSDEERMITHFERSKME
